The results in this text go back to patent US5500807A, “Selection method for pharmacologically active compounds” (The Regents of the University of California, priority 1992, dated 1996).

The subject of this experiment is rGH mRNA in GC cells. Briefly: cells. The settings on record: Rattus norvegicus, 48 h, read-out: EC50 for blockade of rGH mRNA.

pEC50: −log10 of the molar value.

As usually defined, the pEC50 is −log10 of the EC50, conventionally taken in molar units.

As to `CCCCc1oc2ccccc2c1C(=O)c1cc(I)c(OCCN(CC)CC)c(I)c1` [amiodarone, 2-butyl-3-[3,5-diiodo-4-(β-diethylaminoethoxy)-benzoyl]benzofuran], the pEC50 was 5.51.
